From PubChem BioAssay AID256 (DTP/NCI, 2004)
The list is a part of this screen's results and no random one: it is rich in T/C values a quarter to a half above the control, in often repeated tests (any T/C) and in doses without a T/C. Other doses and runs of a compound stand elsewhere. T/C is the treated group as % of the vehicle group. Some entries give survivors of the animals treated and no T/C: the source holds a T/C of zero for them, seemingly a mark for toxic or unscored doses. Some survivor counts are full or nearly so, which does not show that the dose was tolerated: the source hardly ever lists a survival T/C far under the control, and the zero likely stands for such cases as well. Counts of survivors are from the toxicity check (mostly the fifth day) where no day follows; animals may have died later. Schedules are NCI's codes, taken here to give the interval after Q, in days (D) or hours (H), and the number of doses after X. Where survival is the endpoint, the PubChem record calls one and a half times the control and up active, and a quarter to a half above the control has no call in these data; cut-offs in other NCI protocols can differ. Some T/C values are followed by the survivors on the day toxicity was checked, most often the fifth; without a count, all were alive then.

System: CD2F1 mice, L1210 leukemia ip, survival T/C
Experiment: NCI In Vivo Anticancer Drug Screen. Data for tumor model L1210 Leukemia (intraperitoneal) in CD2F1 (CDF1) mice
Settings: higher T/C = longer survival
In short: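 Read-out first: treated-group measurement over vehicle-control measurement, expressed as a ratio. Animals bore a transplanted tumor line and were dosed with compound or vehicle.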

[1] = T/C endpoint: mean survival time, dose: 400.0 mg/kg/injection, schedule: Q04DX003 (ip), vehicle: saline with Tween-80
[2] = T/C endpoint: mean survival time, dose: 200.0 mg/kg/injection, schedule: Q04DX003 (ip), vehicle: saline with Tween-80
[3] = T/C endpoint: mean survival time, dose: 100.0 mg/kg/injection, schedule: Q04DX003 (ip), vehicle: saline
[4] = T/C endpoint: mean survival time, dose: 200.0 mg/kg/injection, schedule: Q04DX003 (ip), vehicle: saline

SMILES: Cc1cc[n+](-c2c3c(nc4ccccc24)-c2ccccc2C(C)(C)C3)cc1
- survivor count (T/C endpoint: mean survival time, dose: 100.0 mg/kg/injection, schedule: Q04DX003 (ip), vehicle: saline sonified): 6 of 6
- survivor count (T/C endpoint: mean survival time, dose: 200.0 mg/kg/injection, schedule: Q01DX001 (ip), vehicle: saline with Tween-80): 0 of 6
- survivor count (T/C endpoint: mean survival time, dose: 400.0 mg/kg/injection, schedule: Q01DX001 (ip), vehicle: saline with Tween-80): 0 of 6

SMILES: COc1cc2c(c(OC)c1OC)-c1ccc(OC)c(=O)cc1[C@@H](N(C)C(C)=O)CC2
- T/C (T/C endpoint: mean survival time, dose: 0.5 mg/kg/injection, schedule: Q01DX005 (ip), vehicle: Klucel (hydroxypropylcellulose) (HPC)): 132 % of control
- survivor count (T/C endpoint: mean survival time, dose: 2.0 mg/kg/injection, schedule: Q01DX005 (ip), vehicle: Klucel (hydroxypropylcellulose) (HPC)): 0 of 6

SMILES: CCCCNC(=O)Oc1ccc(OCc2ccccc2)cc1
- survivor count [1]: 6 of 6

SMILES: C[S+]1C=C(c2ccccc2)C=C(c2ccccc2)C1 (centres undefined)
- survivor count (T/C endpoint: mean survival time, dose: 15.0 mg/kg/injection, schedule: Q01DX001 (ip), vehicle: saline with Tween-80): 2 of 6
- survivor count (T/C endpoint: mean survival time, dose: 30.0 mg/kg/injection, schedule: Q01DX001 (ip), vehicle: saline with Tween-80): 0 of 6

SMILES: Cn1cnc2c(SCc3ccccc3)ncnc21
- T/C [2]: 126 % of control
- T/C [1]: 140 % of control

SMILES: C1CC2CCC3CCCC4CCC(C1)C2C34 (centres undefined)
- survivor count [1]: 6 of 6

SMILES: C=C(C)[C@H]1CN[C@H](C(=O)O)[C@H]1CC(=O)O
- survivor count (T/C endpoint: mean survival time, dose: 10.0 mg/kg/injection, schedule: Q01DX001 (ip), vehicle: saline): 2 of 6
- survivor count (T/C endpoint: mean survival time, dose: 20.0 mg/kg/injection, schedule: Q01DX001 (ip), vehicle: saline): 1 of 6
- survivor count (T/C endpoint: mean survival time, dose: 40.0 mg/kg/injection, schedule: Q01DX001 (ip), vehicle: saline): 1 of 6
- survivor count (T/C endpoint: mean survival time, dose: 80.0 mg/kg/injection, schedule: Q01DX001 (ip), vehicle: saline): 0 of 6
- survivor count (T/C endpoint: median survival time, dose: 100.0 mg/kg/injection, schedule: Q01DX009 (ip), vehicle: saline): 0 of 6

SMILES: CC(C)=NC(=O)NO.[Cl][Co][Cl]
- survivor count (T/C endpoint: mean survival time, dose: 38.0 mg/kg/injection, schedule: Q04DX003 (ip), vehicle: saline): 3 of 6
- survivor count (T/C endpoint: mean survival time, dose: 150.0 mg/kg/injection, schedule: Q04DX003 (ip), vehicle: saline): 4 of 6

SMILES: O=C(O)c1ccccc1SSc1ccccc1C(=O)O
- survivor count [1]: 1 of 6

SMILES: CO[C@H](/C(C)=C/C=C/C(C)=C/c1coc(C)n1)[C@H](C)[C@H]1C[C@@H](O)[C@@]2(C)O[C@H]2/C=C/[C@@H](C)[C@@H]2C[C@@H](CC(=O)O2)C[C@H]2O[C@@H]2C(=O)O1
- T/C (T/C endpoint: median survival time, dose: 0.25 mg/kg/injection, schedule: Q01DX009 (ip), vehicle: Klucel (hydroxypropylcellulose) (HPC)): 132 % of control
- survivor count (T/C endpoint: median survival time, dose: 1.0 mg/kg/injection, schedule: Q01DX009 (ip), vehicle: Klucel (hydroxypropylcellulose) (HPC)): 6 of 6
- survivor count (T/C endpoint: median survival time, dose: 2.0 mg/kg/injection, schedule: Q01DX009 (ip), vehicle: Klucel (hydroxypropylcellulose) (HPC)): 1 of 6
- survivor count (T/C endpoint: median survival time, dose: 4.0 mg/kg/injection, schedule: Q01DX009 (ip), vehicle: Klucel (hydroxypropylcellulose) (HPC)): 0 of 6
- T/C (T/C endpoint: median survival time, dose: 80.0 micrograms/kg/injection, schedule: Q01DX009 (ip), vehicle: Klucel (hydroxypropylcellulose) (HPC)): 126 % of control
- T/C (T/C endpoint: median survival time, dose: 160.0 micrograms/kg/injection, schedule: Q01DX009 (ip), vehicle: Klucel (hydroxypropylcellulose) (HPC)): 146 % of control
- T/C (T/C endpoint: median survival time, dose: 320.0 micrograms/kg/injection, schedule: Q01DX009 (ip), vehicle: Klucel (hydroxypropylcellulose) (HPC)): 138 % of control
- T/C (T/C endpoint: median survival time, dose: 640.0 micrograms/kg/injection, schedule: Q01DX009 (ip), vehicle: Klucel (hydroxypropylcellulose) (HPC)): 134 % of control

SMILES: CCn1cnc2c(SC3CCCC3)ncnc21
- T/C (T/C endpoint: mean survival time, dose: 800.0 mg/kg/injection, schedule: Q01DX001 (ip), vehicle: carboxymethylcellulose (CMC)): 137 % of control [5 of 6 alive]

SMILES: CC(C)NCC(O)c1ccc(O)c(O)c1.[Pt].c1ccc([PH+](c2ccccc2)c2ccccc2)cc1.c1ccc([PH+](c2ccccc2)c2ccccc2)cc1
- survivor count (T/C endpoint: median survival time, dose: 200.0 mg/kg/injection, schedule: Q04DX003 (ip), vehicle: saline with Tween-80): 3 of 6

SMILES: CCCCNC(=S)N/N=C/c1ccccn1
- survivor count (T/C endpoint: mean survival time, dose: 400.0 mg/kg/injection, schedule: Q04DX002 (ip), vehicle: saline with Tween-80): 0 of 3

SMILES: O=C(Nc1ccc2c(c1)OCO2)O/N=C1\C(=O)Nc2ccccc21
- survivor count [1]: 0 of 6

SMILES: O=S1(=O)CC23C=CC=CC2(CCCC3)C1Cl (centres undefined)
- survivor count (T/C endpoint: mean survival time, dose: 200.0 mg/kg/injection, schedule: Q04DX003 (ip), vehicle: other): 5 of 6
- survivor count (T/C endpoint: mean survival time, dose: 400.0 mg/kg/injection, schedule: Q04DX003 (ip), vehicle: other): 3 of 6

SMILES: NCCCCS(=O)(=O)Nc1ccc(Nc2c3ccccc3nc3cc([N+](=O)[O-])ccc23)cc1
- T/C (T/C endpoint: mean survival time, dose: 25.0 mg/kg/injection, schedule: Q01DX009 (ip), vehicle: saline with Tween-80): 146 % of control
- T/C [3]: 130 % of control
- T/C [2]: 138 % of control [5 of 6 alive]
- T/C [4]: 133 % of control

SMILES: c1cc2c(cc1CC1CCNC1)OCO2 (centres undefined)
- survivor count (T/C endpoint: mean survival time, dose: 100.0 mg/kg/injection, schedule: Q01DX001 (ip), vehicle: saline sonified): 0 of 6
- survivor count (T/C endpoint: mean survival time, dose: 200.0 mg/kg/injection, schedule: Q01DX001 (ip), vehicle: saline sonified): 0 of 6
- survivor count (T/C endpoint: mean survival time, dose: 400.0 mg/kg/injection, schedule: Q01DX001 (ip), vehicle: saline sonified): 0 of 6

SMILES: C1CCC2CN(CCCN3CCOCC3)CC2C1 (centres undefined)
- survivor count (T/C endpoint: mean survival time, dose: 400.0 mg/kg/injection, schedule: Q01DX009 (ip), vehicle: saline): 0 of 6

SMILES: CNCCOc1ccc(Cl)cc1
- survivor count [2]: 0 of 6
- survivor count [1]: 0 of 6

SMILES: COc1ccc(CC(N)C(=O)O)cc1N(CCCl)CCCl (centres undefined)
- T/C (T/C endpoint: mean survival time, dose: 4.5 mg/kg/injection, schedule: Q01DX001 (ip), vehicle: carboxymethylcellulose (CMC)): 142 % of control
- T/C (T/C endpoint: mean survival time, dose: 7.0 mg/kg/injection, schedule: Q01DX001 (ip), vehicle: carboxymethylcellulose (CMC)): 140 % of control

SMILES: Cc1ncc(C[P+](c2ccccc2)(c2ccccc2)c2ccccc2)c2c1OC(C)(C)OC2
- survivor count (T/C endpoint: mean survival time, dose: 300.0 mg/kg/injection, schedule: Q01DX001 (ip), vehicle: saline): 0 of 6

SMILES: COc1cc(OC)c(NC(=O)OCCOc2cc(C)c(Cl)c(C)c2)cc1Cl
- survivor count (T/C endpoint: mean survival time, dose: 50.0 mg/kg/injection, schedule: Q01DX009 (ip), vehicle: saline with Tween-80): 3 of 3
- survivor count (T/C endpoint: mean survival time, dose: 200.0 mg/kg/injection, schedule: Q01DX009 (ip), vehicle: saline with Tween-80): 3 of 3

SMILES: Cc1ccc(C)c(C(=O)c2ccccc2C(N)=O)c1
- survivor count [3]: 6 of 6
- survivor count [4]: 6 of 6
- survivor count (T/C endpoint: mean survival time, dose: 400.0 mg/kg/injection, schedule: Q04DX003 (ip), vehicle: saline): 6 of 6

SMILES: CCCCN=C=C(c1ccccc1)c1ccccc1
- survivor count (T/C endpoint: mean survival time, dose: 100.0 mg/kg/injection, schedule: Q04DX002 (ip), vehicle: other): 1 of 3
- survivor count (T/C endpoint: mean survival time, dose: 200.0 mg/kg/injection, schedule: Q04DX002 (ip), vehicle: other): 3 of 3
- survivor count (T/C endpoint: mean survival time, dose: 400.0 mg/kg/injection, schedule: Q04DX002 (ip), vehicle: other): 1 of 3

SMILES: COc1cccc(NC(=S)/C(=C(\[O-])c2ccc([N+](=O)[O-])cc2)[n+]2ccc(C(C)C)cc2)c1
- survivor count (T/C endpoint: mean survival time, dose: 400.0 mg/kg/injection, schedule: Q01DX009 (ip), vehicle: saline with Tween-80): 1 of 6

SMILES: C/C(=N\NC(=O)c1ccccc1O)c1cccc(/C(C)=N/NC(=O)c2ccccc2O)n1
- survivor count (T/C endpoint: median survival time, dose: 50.0 mg/kg/injection, schedule: Q01DX009 (ip), vehicle: saline): 3 of 6

SMILES: COC(=O)C([NH-])c1ccccc1.COC(=O)C([NH-])c1ccccc1.[Cl][Pt+2][Cl] (centres undefined)
- survivor count (T/C endpoint: median survival time, dose: 200.0 mg/kg/injection, schedule: Q04DX003 (ip), vehicle: saline): 5 of 6

SMILES: Clc1ccc(-c2nnn3ccccc23)cc1
- survivor count (T/C endpoint: mean survival time, dose: 50.0 mg/kg/injection, schedule: Q01DX001 (ip), vehicle: saline with Tween-80): 3 of 3
- survivor count (T/C endpoint: mean survival time, dose: 400.0 mg/kg/injection, schedule: Q01DX001 (ip), vehicle: saline): 3 of 3
